# System: male Wistar rats
# Experiment: Experiment 4: roflumilast-mediated diarrhoea and mesentery histopathology in rats, with or without SC-560 or lumiracoxib
# Format: in vivo, rat
# [1] = NSAID 2 mg/kg at 0800 and 1700 co-administered with roflumilast 10 mg/kg at 1300, p.o. for four days
# [2] = affected animals out of animals examined, p.o. for four days, 95 hours after t0, roflumilast 10 mg/kg at 1300, SC-560 or lumiracoxib 2 mg/kg at 0800 and 1700
smiles,measurement,setting,value
COc1ccc(-n2nc(C(F)(F)F)cc2-c2ccc(Cl)cc2)cc1 [SC-560],protective effect on roflumilast-mediated multifocal perivascular mononuclear infiltration in the mesentery,[1],only a very slight protective effect
same,protective effect on roflumilast-mediated proliferation of fibroblasts in the mesentery,[1],only a very slight protective effect
same,Mesentery: Proliferation of fibroblasts,[2],0/5
same,Mesentery: multifocal perivascular mononuclear infiltration (= inflammation parameter),[2],0/5
